For 37 compounds, cell number change and AC50 results are on record in PubChem BioAssay AID2685 (National Center for Advancing Translational Sciences (NCATS), 2010).

Structures are written as SMILES. The list shows a part of the results. The main result of the screen is listed elsewhere. These columns were measured beside it and carry no call. Compounds called inactive in the main read-out are mostly missing here. Potencies come from curve fits of mixed quality, noted in brackets.

The experiment is described as follows: qHTS Assay for Lipid Storage Modulators in Drosophila S3 Cells.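 As to cell number change: cells counted by Cell Tracker Red CMTPX staining in the red channel.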 The following applies: BODIPY lipid droplet fluorescence, 18-24 h; for cell number change: measured here: cell count max response, cells fed with added oleic acid. The gist of the method:
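Laser-scanning cytometry quantifies lipid droplet accumulation (500–530 nm total intensity; droplet/cell object ratio) in oleic acid-fed (400 uM added) Drosophila S3 cells treated with a concentration series. 20 uM Triacsin C defined 100% inhibition.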

The mark [1] stands for this setting: measured here: lipid fluorescence (Fed channel) AC50, cells fed with added oleic acid.
Setting [2] is: measured here: cell number channel AC50, cells fed with added oleic acid.

Turning to `CCOc1ccc(CN(C)C(=O)CNC(=O)c2cc(OC)c(OC)c(OC)c2)cc1`, the cell number change is 22.2%. Under setting [1], the AC50 is 29.1 µM [rising, single point].
For the compound `CCOC(=O)c1sc(N2C(=O)C(O)=C(C(=O)c3ccco3)C2c2cccc([N+](=O)[O-])c2)nc1C` (stereo unspecified), the cell number change came out at 9.76%. Further, the AC50 under setting [1] is 16.4 µM [rising, partial curve].
Take `O=C(N/N=C1/SCC(=O)N1Cc1ccco1)c1ccccc1F`: the cell number change was found to be 11.9%.
As for `N#Cc1cc(O)c(-n2nnc3ccccc32)cc1C#N`, the cell number change is -21.3%. In addition, under setting [1], the AC50 is 29.1 µM [falling, single point].
Take `Cc1ccc(C2(C)NC(=O)N(CC(=O)N(C)CC(=O)Nc3cccc(F)c3)C2=O)cc1` (stereo unspecified): the cell number change is -14.9%. Moreover, under setting [1], the half-maximal activity concentration (AC50) is 29.1 µM [rising, single point].
Turning to `O=C(COC(=O)/C=C/c1cccc(C(F)(F)F)c1)NCc1ccc(F)cc1`, the AC50 is 0.731 µM [rising, single point] under setting [2] and 20.6 µM [rising, single point] under setting [1].
For the compound `CCOc1ccccc1NC(=O)CSc1ccc(-c2sc(C)nc2C)nn1`, the cell number change was -26.3%. The AC50 under setting [1] was 29.1 µM [falling, single point].
Consider `COc1cc(C(=O)Nc2ncccc2C)ccc1OCC(=O)N1CCOCC1`, for which the cell number change amounted to 3.05%. Further, the AC50 under setting [2] was 6.51 µM [rising, single point]. Moreover, the AC50 under setting [1] is 6.51 µM [rising, single point].
On to `CCOC(=O)c1cn(CC)c2ccc(Br)cc2c1=O`, for which the cell number change came to 85.1%. Also, the AC50 under setting [2] was 5.8 µM [rising, partial curve]. In addition, under setting [1], the AC50 was 13 µM [rising, partial curve].
As to `O=C(/C=C/N1CCOCC1)c1ccc(-c2ccccc2)cc1`, the cell number change was -3.65%. Under setting [1], the half-maximal activity concentration (AC50) is 0.116 µM [falling, full curve].
`COc1ccc(C(=O)COc2ccc(NC(C)=O)cc2)cc1`: the cell number change is 6.85%. The AC50 under setting [1] was 20.6 µM [rising, single point].
`O=c1[nH]cnc2sc(-c3ccccc3)cc12`: the cell number change came out at 84.1%. The AC50 under setting [2] was 7.31 µM [rising, partial curve]. Further, the AC50 under setting [1] is 13 µM [rising, partial curve].
With `Cc1ccc(S(=O)(=O)CCC(=O)Nc2ccc3nc(C)sc3c2)cc1`, the cell number change is -6.16%.
Regarding `NS(=O)(=O)c1ccc(NC(=O)c2ccc(Cl)c(S(=O)(=O)NCc3ccco3)c2)cc1`, the cell number change is -35%. For the same compound, the AC50 under setting [2] was 18.4 µM [falling, single point]. Also, the AC50 under setting [1] is 18.4 µM [falling, partial curve].
In the case of `Cc1cccc(C(=O)NCC(=O)N2CCC2)c1`, the cell number change is -3.58%. Besides, the AC50 under setting [1] was 0.291 µM [falling, partial curve, poor fit].
Turning to `COc1cccc(C2CC(=O)N3CN(c4cccc(Cl)c4C)CSC3=C2C#N)c1OC` (stereo unspecified), the cell number change is -3.95%. Moreover, the AC50 under setting [1] is 2.59 µM [falling, full curve].
For `COc1c2c(nc3ccccc13)OC(C(C)(O)CO)C2` (stereo unspecified), the cell number change was 29.1%. In addition, under setting [1], the AC50 is 13 µM [falling, partial curve, poor fit].
As to `Cc1ccc(NC(=O)C(c2ccccc2)N2CCN(CC(=O)NC3CC3)CC2)cc1` (stereo unspecified), the cell number change is 20.2%. Also, the concentration at half-maximal activity (AC50) under setting [1] is 0.116 µM [falling, full curve, poor fit].
Consider `O=C(Cn1cnc2ccccc21)N/N=C/C(Br)=C/c1ccccc1`, for which the cell number change was -40.1%. Further, the AC50 under setting [2] was 29.1 µM [falling, single point]. For the same compound, the AC50 under setting [1] was 16.4 µM [falling, single point].
`S=c1[nH]ccn1-c1cccc(Cl)c1`: the cell number change stood at 33.3%. Moreover, the AC50 under setting [2] is 29.1 µM [rising, single point].
With `Cc1cc(=O)[nH]c(-n2[nH]c3c(c2=O)CCCC3)n1`, the cell number change is -16.1%.
As for `CCN(CC)P(=O)(Nc1ccc([N+](=O)[O-])cc1)c1c(C)nn(CCC#N)c1NC(=O)c1ccc(Cl)cc1` (stereo unspecified), the cell number change stood at 14.3%. Besides, the AC50 under setting [1] is 0.58 µM [rising, single point].
Regarding `Cc1ccc(-c2nn(C)c(=O)c3ccccc23)cc1CN1CCCCC1`, the cell number change was -12.2%.
As for `COc1ccc(N2CCN(C(=O)c3cc4c(s3)-c3ccccc3OC4)CC2)cc1`, the cell number change amounted to 28%. For the same compound, the concentration at half-maximal activity (AC50) under setting [1] is 0.00651 µM [rising, full curve, poor fit].
Turning to `CCOCCCNC(=O)COc1ccc(OC)cc1`, the cell number change is -1.88%.
For the compound `O=C(CCN1C(=O)c2ccccc2C1=O)NCc1cccc(Cl)c1`, the cell number change is 17.9%. The AC50 under setting [2] is 0.00517 µM [rising, full curve, poor fit].
For the compound `COc1ccc2[nH]c3c(c2c1)CN(C)CC3`, the cell number change turned out to be 45%. The AC50 under setting [2] was 0.461 µM [rising, full curve]. Further, the AC50 under setting [1] is 0.82 µM [rising, full curve].
Regarding `CCC(C)NC(=O)CC1Oc2ccc(C)cc2NC1=O` (stereo unspecified), the AC50 under setting [2] is 2.31 µM [rising, single point].
With `COc1ccc(O)c(C(=O)c2cnc3c(c2)c(C)nn3CCO)c1`, the cell number change turned out to be 21.4%.
Consider `CS(=O)(=O)N(Cc1ccco1)CC(O)Cn1c2ccccc2c2ccccc21` (stereo unspecified), for which the cell number change was determined as 216%. For the same compound, the AC50 under setting [2] is 23.1 µM [rising, partial curve]. For the same compound, under setting [1], the AC50 was 1.64 µM [rising, partial curve].
As to `Clc1ccc(C2C3=C(Nc4ncnn42)c2ccccc2CC3)cc1` (stereo unspecified), the AC50 was 0.291 µM [rising, full curve] under setting [2] and 0.259 µM [rising, partial curve, poor fit] under setting [1].
As to `O=C(O)CCC(=O)Nc1ccc(S(=O)(=O)N2CCCC2)cc1`, the cell number change was -8.6%. The half-maximal activity concentration (AC50) under setting [2] was 0.651 µM [falling, partial curve]. Further, the AC50 under setting [1] was 3.66 µM [falling, full curve].
Take `CCOC(=O)CNC(=O)CSc1nnc(NC(=O)c2ccc3c(c2)OCO3)s1`: the AC50 under setting [1] was 6.51 µM [rising, single point].
With `CSc1ccccc1NC(=O)COc1nsnc1N1CCOCC1`, the cell number change worked out at 2.45%. Also, the AC50 under setting [1] was 29.1 µM [rising, single point].
As for `Cc1ccc(O)c(-c2cc(C(F)(F)C(F)F)[nH]n2)c1`, the cell number change was -58.4%. Moreover, under setting [2], the AC50 is 18.4 µM [falling, partial curve]. Moreover, the AC50 under setting [1] is 2.91 µM [falling, full curve, poor fit].
As to `COc1cc(C(=O)Nc2ccc(S(=O)(=O)Nc3cc(C)on3)cc2)cc(OC)c1OC`, the cell number change stood at 3.12%. For the same compound, the AC50 under setting [1] was 3.26 µM [falling, full curve].
Turning to `Cc1nc2ccccc2c(-c2ccccc2)c1C(=O)c1ccccc1`, the cell number change stood at 67.6%. For the same compound, the AC50 under setting [2] was 7.31 µM [rising, partial curve]. Further, the concentration at half-maximal activity (AC50) under setting [1] was 6.51 µM [rising, single point].

The AC50 is the midpoint of the concentration-response curve, whichever way the signal moves.
